## Results from one PubChem assay

From PubChem BioAssay record AID1159506 (NCATS, 2015).

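Genome-wide siRNA knockdown in TC32 Ewing sarcoma cells, comparing luciferase light from an NR0B1-promoter reporter with a CMV-promoter reporter 48 hours after transfection.
Each siRNA was applied at 20 nM.
A z-score of the log NR0B1-over-CMV signal, less the median of siRNAs with the same seed; more negative means a stronger specific loss of the NR0B1 reporter.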

The strongest results of the screen are mostly left out here.
Sequences are the guide (antisense) strand, without overhang.

Sequence | gene | seed-corrected z-score
UUCAUGUUCCCGACUGUAG | CLK3 | -0.2316
AAUAGUACAAGCACUAUGC | SLC9A8 | -0.1532
UUUAUAUAACUCCACAACC | CXorf21 | -0.1944
AAUUUGAUCAGGAAAUUGC | EXTL2 | 0.05031
AUAUGUAAUUGAAGGAAUG | HIST2H3D | 0.2776
AGAGGAACGACUCGUGUAC | FLYWCH1 | -0.7012
UUUGCGAAAAAGACCCACC | STARD13 | 0.3147
UUCCAUCUCCCACUUGUCG | ABL1 | -0.3793
UCUGAACCCAGUCUCAUGU | OR3A2 | 0.3745
UAGCUUACCCUGACCCACC | ANKRD34A | -0.8166
UCUGGAAAGCCUACGAUGC | TSR3 | 0.1331
UCACUGUCCGUCAUCUGCC | FBXL14 | -0.3146
AUAGGUAACAGGCUCUUUC | ACTR1A | -0.4648
UAAGCAGUUACCUCCAGGC | AKR1A1 | 0.004278
UGCUUGAUCUGGUUUGUCC | BTBD16 | 0.01492
AGUCGUUAAACAGCGGUCU | CDK2AP2 | -0.5507
UGUUGUACUCGUCUGUUCC | PRKCSH | -0.5493
AAGGAUGUCAGGGAGUUCC | LRRC28 | -1.249
UGCGUUAAAAAUGUUCUCC | CACNA2D3 | -0.826
UGGAUUAUCAGUGGUUUGC | C1orf87 | 0.2319
UCCGAGUUUAAGAUGUGCC | NASP | -0.9301
AUAGUUCUCGAAGACGGUG | RHOB | -0.2633
UCUUUUUAUAGGUGCUUCC | PLEK2 | 0.1761
UAAGGUUUAAUCUAAAGAA | HHIP-AS1 | -0.01735
UUUUUCGCAAAGCUAUUCC | FABP5 | -0.5492
UGGGUAGCCAGAAAAUCCU | OR13J1 | 0.1006
UUCGUUCUCACUUCGAUCC | MROH1 | -0.1948
UAAGGUUAAAUCAAGACUG | HAGH | 0.2508
AACCCUAACAGCAUAGCUC | PRSS12 | 0.5055
UUCAUAACCACAUCAUAGU | OR1L4 | -0.205
UUUACAUUUACCAUCAUUG | AMY2A | 0.7379
UCAUGUCUACGAUAGGAUC | ZNF440 | -0.9447
UUCGGCAUUGUUGAUACUC | RPS15A | 1.435
AUAAGUACCAUUCCAGUGG | UBR1 | 0.2136
UUUGGUGCACUUGAUAUCG | CAD | -0.7485
UAUUUUUCCACGAAGGUCU | CDC37 | -0.6321
AAAAGUGUCAGCAAUCAUC | OR4S1 | 0.1954
UUUCUUGUUGCCCUUGUUG | CEL | 0.5871
UGAAGACCUACGAUGUAGU | ZG16 | 0.6405
UCCAUUAGCACCCACGAGU | MGAT4EP | -0.8607
UGCUGUUUCAGAGAUGAUC | GYG1 | 1.002
UCUCUUGUUUGAGCCGCGG | CCDC124 | 0.248
GACCAUUCCCUCCUGAUUG | LINC00304 | 0.0742
UAAAUCGUACGGCUCGCAC | WDR83 | -0.01208
UUAUGUGCCCUUCUACAGC | C15orf41 | -0.4619
UCUGAAGCAUCGACAAUAC | NIPBL-AS1 | 0.5405
ACCGUAGAAAGUCCAAUGG | COL28A1 | -0.4965
UUCAUUAUAUUCACAAUGC | ZNF569 | -0.8987
UCUGUACAAUAAACGGUCC | METTL22 | 0.1534

Repeated from the top, 3 entries:

UUCAUGUUCCCGACUGUAG against CLK3 gave seed-corrected z-score -0.2316.
AAUAGUACAAGCACUAUGC against SLC9A8 gave seed-corrected z-score -0.1532.
UUUAUAUAACUCCACAACC against CXorf21 gave seed-corrected z-score -0.1944.